# Test results reported in the supplement of paper PMC5949888.
# Most values lie at the floor of the assay. Slopes are relative: functional sequences can read slightly below zero.
# System: Saccharomyces cerevisiae PS128 hsf1 delta, HSF1(1-493) fusion
# Assay: growth estimate (transactivation domain function in HSF1 fusion, heat-shock survival) (a.u. (slope of normalised read count over time)); higher = stronger growth at 37°C, i.e. more transactivation activity
# Conditions: library: random library
# Method: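 Random 60-nt DNA library encoding peptides of up to 20 aa, fused to the C-terminus of yeast HSF1 residues 1-493 (C-terminal TAD deleted) and expressed from the native HSF1 promoter on a CEN plasmid in hsf1-deleted S. cerevisiae PS128. Cells were selected at 37°C on -trp 5-FOA plates for 0, 2, 4, 6 and 8 days and amplicons were sequenced. Growth estimate is the slope of a robust linear fit of total-sum-normalised read counts (normalised to the first time point) over time, using at least 2 replicates. Sequences are classed functional (TAD activity) above a threshold of -0.13, set from stop-codon control sequences.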
row,Substance,growth estimate
1,IFPYLYPLVLVAAASRPSRA,< -0.25
2,GRWKIGHK,< -0.25
3,LRPLFASNTSGFGDIWFDLR,0.304
4,PLLRQKRRYELGSRQRECMG,< -0.25
5,DANEEYMFESKWLSLTPETC,< -0.25
6,SYRIGTVCSIFLAICNSARN,< -0.25
7,RDQTFIKSLPGSKHARAHTR,< -0.25
8,DSNVTC,< -0.25
9,RPVVCGREIRPPRTR,< -0.25
10,RPSGNRWEVSLRF,< -0.25
11,NSSTHVA,-0.15
12,ALTSSAESHRLISLSTSDLR,< -0.25
13,AQEQDYNKFEFPWYHTIGS,0.0226
14,GKPS,< -0.25
15,DTLELYR,< -0.25
16,VSRQGNPRGIYSPD,< -0.25
17,KECSSVSPELGLTYGVSSNW,< -0.25
18,GRVLLLRTRSLHWVRFGSGD,< -0.25
19,SAHRKRPLVGKGLSTKYKGP,< -0.25
20,QGILRGATLLG,< -0.25
21,LRSGRPVATGVLLISHHTSV,< -0.25
22,IRSRSGAG,< -0.25
23,NPKCHII,< -0.25
24,KFIANPGTTGASHFGAVSVR,< -0.25
25,NSECPHNPGSVFKTFQLRSP,< -0.25

row,Substance,growth estimate
1,GGRSYKINAHRQSFSLGRRL,< -0.25
2,RHRAHCSSRMKSEEFRAAST,< -0.25
3,RGRTRLSSLYIEGPAPSRVV,< -0.25
4,AWWPLVESGGLIIYWRTRSP,< -0.25
5,ASGRLNYGN,< -0.25
6,RHVAVLLTKTRQSF,< -0.25
7,VLHYQLKSRVVDNLRRNLKT,< -0.25
8,FVGVGPTEPAVWRHICLHPH,-0.246
9,GFVSARVLLVHRTGCRT,< -0.25
10,GSPEMREAELVSDSAT,< -0.25
11,PSSISS,< -0.25
12,FLPARSQNGSYTASKIWGRR,< -0.25
13,RALQYRVRYILAA,< -0.25
14,LEGMRRGFLAIHGRSNPTYS,< -0.25
15,SPGMCGAENQSCKRPNESHR,< -0.25
16,ITAAMEGGGAPRLYCALETR,< -0.25
17,RRHRGVYLFE,< -0.25
18,RDATIASPDGENG,< -0.25
19,PLVYYQSGPNEILSAFIEP,-0.206
20,VRPVVGTGGVGSGTHRAQST,< -0.25
21,NSRVQPVSDLPKV,-0.246
22,GPGGVPIYVVSAKDYGSIPA,< -0.25
23,EKVNIGCLV,< -0.25
24,TALT,< -0.25
25,GRTYLAAQAFRSPPQGLRV,< -0.25

row,Substance,growth estimate
1,DGLVNNMATGPCAPLEAL,< -0.25
2,HVHRAGPYKCSRVWSSESGG,< -0.25
3,PALVGLPIRL,< -0.25
4,FPQ,< -0.25
5,SVTDVSS,< -0.25
6,SGIVVLIDHRRVKATGTSVE,< -0.25
7,QSYITPT,< -0.25
8,HIPSHLS,< -0.25
9,GIRGLLG,< -0.25
10,GSFSRTDDRRRGSEEPILCC,< -0.25
11,QDRHVLRRSG,< -0.25
12,VTVSERYGFFKE,< -0.25
13,LRLDTG,< -0.25
14,QDSALLL,< -0.25
15,KSTGGGSGRSDYVVVNITTR,< -0.25
16,DIAWV,-0.0052
17,KWQYNLCILTRAIYGAATEY,< -0.25
18,EGVCGLR,< -0.25
19,LQQNVR,< -0.25
20,PDDRLTH,< -0.25
21,RKVL,< -0.25
22,LSIVNPKQDGVWPRLRRSDS,< -0.25
23,RCLLIDKSH,< -0.25
24,VSQLSLLEFYLRLALPTQKA,< -0.25
25,KIRE,< -0.25

row,Substance,growth estimate
1,AAARKTAPVVRKGRLSLCLL,< -0.25
2,NATGSTRGIKDLEGCQTCRK,< -0.25
3,QAEGGYLWSLVWPSSE,< -0.25
4,GHAG,< -0.25
5,KVACVKPETWIHP,< -0.25
6,DVPRRQATNSPGKIKAGTYT,< -0.25
7,RPPLTSYLWCVGITGYGPTR,< -0.25
8,MIITAVTSGAAPSGSSKRHR,< -0.25
9,ILLSVTELHTEFRTLHFRPI,< -0.25
10,VRCWL,< -0.25
11,VTLGPIGWACPFVYKQGHIW,< -0.25
12,DWAF,< -0.25
13,GTPSCVFVTNLLSKCRQDLP,< -0.25
14,GRAAVTL,< -0.25
15,LQVVRHCGVGKVLTTIRGGA,< -0.25
16,GHLNRRGSRFLRAKHFGICF,< -0.25
17,TKCYRPSSSCSV,< -0.25
18,CSSHKQTGR,< -0.25
19,RRPYDPSYVVVSI,< -0.25
20,VLCE,< -0.25
21,DERI,< -0.25
22,NREH,< -0.25
23,WLESHRSREVSHFSDVPIRG,< -0.25
24,YIVLLLGSSGISKGEGNRGA,< -0.25
25,STNTLLIVLICGDFSM,< -0.25

row,Substance,growth estimate
1,GIDLKTKQEPACSCIVGAG,< -0.25
2,RKMIVLLSLLDAVIRARPAA,< -0.25
3,EGHRVYSGP,< -0.25
4,RRLTGGAAEVRIAGRNGDPV,< -0.25
5,QSYPSSQLFIQFAIK,< -0.25
6,ATPLNGNR,< -0.25
7,SFRDAFNFFLGRRFCLPANA,< -0.25
8,PKRTAPPLTVSLIERFLQPP,< -0.25
9,FFKDWLPPSLRLDCCDDMHH,< -0.25
10,SFFCFMS,< -0.25
11,TELFDVRWEGYGTLIVRPCR,< -0.25
12,LSAPQS,-0.245
13,SSDCDVVT,< -0.25
14,IPSSVLRGACGPSKVFRFWW,< -0.25
15,FGETGWGALWGRVSSERGPR,< -0.25
16,MRLIRGGSHHQ,< -0.25
17,RHGSHDYQDNCEGARTGLCL,< -0.25
18,EGSATKRNQLDASAGVWRCR,< -0.25
19,SLPRYVAARDKA,< -0.25
20,HGGHS,< -0.25
21,AVGPNPGAPPVSS,< -0.25
22,CHGV,< -0.25
23,VCHVGSLTHQLF,< -0.25
24,VTTWCPL,< -0.25
25,EARR,< -0.25

# 45 successive records out of the list so far, quoted:
row,Substance,growth estimate
4,GHAG,< -0.25
5,KVACVKPETWIHP,< -0.25
6,DVPRRQATNSPGKIKAGTYT,< -0.25
7,RPPLTSYLWCVGITGYGPTR,< -0.25
8,MIITAVTSGAAPSGSSKRHR,< -0.25
9,ILLSVTELHTEFRTLHFRPI,< -0.25
10,VRCWL,< -0.25
11,VTLGPIGWACPFVYKQGHIW,< -0.25
12,DWAF,< -0.25
13,GTPSCVFVTNLLSKCRQDLP,< -0.25
14,GRAAVTL,< -0.25
15,LQVVRHCGVGKVLTTIRGGA,< -0.25
16,GHLNRRGSRFLRAKHFGICF,< -0.25
17,TKCYRPSSSCSV,< -0.25
18,CSSHKQTGR,< -0.25
19,RRPYDPSYVVVSI,< -0.25
20,VLCE,< -0.25
21,DERI,< -0.25
22,NREH,< -0.25
23,WLESHRSREVSHFSDVPIRG,< -0.25
24,YIVLLLGSSGISKGEGNRGA,< -0.25
25,STNTLLIVLICGDFSM,< -0.25
1,GIDLKTKQEPACSCIVGAG,< -0.25
2,RKMIVLLSLLDAVIRARPAA,< -0.25
3,EGHRVYSGP,< -0.25
4,RRLTGGAAEVRIAGRNGDPV,< -0.25
5,QSYPSSQLFIQFAIK,< -0.25
6,ATPLNGNR,< -0.25
7,SFRDAFNFFLGRRFCLPANA,< -0.25
8,PKRTAPPLTVSLIERFLQPP,< -0.25
9,FFKDWLPPSLRLDCCDDMHH,< -0.25
10,SFFCFMS,< -0.25
11,TELFDVRWEGYGTLIVRPCR,< -0.25
12,LSAPQS,-0.245
13,SSDCDVVT,< -0.25
14,IPSSVLRGACGPSKVFRFWW,< -0.25
15,FGETGWGALWGRVSSERGPR,< -0.25
16,MRLIRGGSHHQ,< -0.25
17,RHGSHDYQDNCEGARTGLCL,< -0.25
18,EGSATKRNQLDASAGVWRCR,< -0.25
19,SLPRYVAARDKA,< -0.25
20,HGGHS,< -0.25
21,AVGPNPGAPPVSS,< -0.25
22,CHGV,< -0.25
23,VCHVGSLTHQLF,< -0.25

# The list goes on.

row,Substance,growth estimate
1,HRRS,-0.243
2,VRGVLSAWRSCHWNYVGPNR,< -0.25
3,VPIYLSLGRYQVSGRSRSRS,< -0.25
4,PCDEIRRVACRFQVTYSRHT,< -0.25
5,SSQEVVIRGKGLRW,-0.213
6,ERTGVRAASKHLGSLLARGL,< -0.25
7,CSDTHIYGNWRTPSVACVNL,< -0.25
8,RPSILVSYGAPVQTALTIRR,< -0.25
9,GED,< -0.25
10,IHSSFIKGRPSCLPFQPSHL,< -0.25
11,SSKAPYCEVRDHRHRVWIRP,< -0.25
12,FGFVFND,2.78
13,FETPLFILTAKSVRAVGAHY,< -0.25
14,RRGRFFEPPECV,< -0.25
15,ESGQHIFPSRV,< -0.25
16,HFTRVIALILARVLA,< -0.25
17,FVGPAAYTCCIKL,< -0.25
18,SEP,< -0.25
19,SVNCRMVHRRMVVSQLRSGL,< -0.25
20,SLQLSC,< -0.25
21,RDRAIPLRVPNSPWTAE,< -0.25
22,ETELQL,< -0.25
23,ASGVVVHRTNLESLHVQATL,< -0.25
24,VGFGSQFGRQFGTAPGTHEL,< -0.25
25,TTCSRVGWKIVGPHWTAGVP,-0.16

row,Substance,growth estimate
1,PDWFGPRCLVSPQLGGEHAL,< -0.25
2,LAPGVP,< -0.25
3,LLRTLFGCNLWKHPAAASLP,< -0.25
4,STGVCLLLLRTKPNSRGRRK,< -0.25
5,RVGISCHTYG,< -0.25
6,VQQ,< -0.25
7,FGTENGNRIPPVQREVP,< -0.25
8,RSSGIRARAVAVLVARRELA,< -0.25
9,TVGT,< -0.25
10,LSWSIRR,< -0.25
11,ADTQSESPS,< -0.25
12,PCLHCERGYVNSS,< -0.25
13,SPLIPSLPF,< -0.25
14,KFVASNWAADRENGSETEST,< -0.25
15,LRGVPAHSQALRSSAVVTLY,< -0.25
16,VSVVSTLNTTAVVG,< -0.25
17,LAIHVRTLGPFEAPGYQIPR,< -0.25
18,CCGLLLRNIRVCHF,< -0.25
19,HDLGDRVVESKPLTHCGP,< -0.25
20,GCK,< -0.25
21,ERLANVYARRSRLRPQYKRS,< -0.25
22,HGR,< -0.25
23,AARGTSNTRLLSGNTLKDGV,< -0.25
24,KSPPACTPQTPVTCQI,< -0.25
25,LFLRCDNLVVSFKTPPTLGM,< -0.25

row,Substance,growth estimate
1,LWGSAVVLAGWDMPFTWRVW,< -0.25
2,RRPAGKVPLQKLTKHQVSPS,< -0.25
3,VLGIGIRPSFGTATVHSRLR,< -0.25
4,LSERE,< -0.25
5,LRGRY,< -0.25
6,YRINSAVRSRKAQMVPPV,< -0.25
7,KNDYLVSCPVSLGSPCVKLG,< -0.25
8,FYYHLR,< -0.25
9,LWSILTIYEYAA,< -0.25
10,GVGDTCTLRRPIVGIVYMQS,< -0.25
11,GQVFRSGKMP,< -0.25
12,QQLTSVGNASRMRIAIHIVW,< -0.25
13,NSPRRKAVLLGPPVGGG,< -0.25
14,AISYEVVWTKGPRHHWRAFR,< -0.25
15,GLGMPKSLRGKWEQENSMSG,< -0.25
16,TSYSSTPCFYDFTAAHRSQI,< -0.25
17,SLAHEVVQWEVAFP,-0.243
18,WCLRCLLNVGSKIC,< -0.25
